According to US20140308209A1:
These are yes or no findings as the source states them, for the method shown. Some results given as binding are weak or reduced against the parent protein; the word gives no strength. For some assays here: Tags and fused reporters may be left off the sequences shown.

How the values were obtained:
[1] = target: T1, human Siglec-10 (sialic acid binding Ig-like lectin-10) on human CD4+ T-cells (human) (UniProt Q96LC7); assay: statement in the methods of Example 20, referring back to Example 13
T1 sequence: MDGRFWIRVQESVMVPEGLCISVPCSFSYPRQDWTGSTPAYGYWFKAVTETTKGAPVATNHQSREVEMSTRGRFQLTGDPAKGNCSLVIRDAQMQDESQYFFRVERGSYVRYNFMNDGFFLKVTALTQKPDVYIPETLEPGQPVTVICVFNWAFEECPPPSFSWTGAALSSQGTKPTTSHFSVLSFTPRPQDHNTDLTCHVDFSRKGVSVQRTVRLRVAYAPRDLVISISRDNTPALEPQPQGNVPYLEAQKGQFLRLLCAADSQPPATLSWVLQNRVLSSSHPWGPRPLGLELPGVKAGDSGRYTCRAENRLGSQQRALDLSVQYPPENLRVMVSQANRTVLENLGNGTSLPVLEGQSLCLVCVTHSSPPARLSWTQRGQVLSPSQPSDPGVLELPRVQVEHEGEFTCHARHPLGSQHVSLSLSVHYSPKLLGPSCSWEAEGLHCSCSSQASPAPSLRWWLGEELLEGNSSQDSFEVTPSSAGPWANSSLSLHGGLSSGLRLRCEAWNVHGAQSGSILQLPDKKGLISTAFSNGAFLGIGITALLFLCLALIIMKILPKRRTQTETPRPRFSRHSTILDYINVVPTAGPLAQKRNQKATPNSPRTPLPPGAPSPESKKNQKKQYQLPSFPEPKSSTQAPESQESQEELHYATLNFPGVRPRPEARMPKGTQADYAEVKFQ

[2] = target: T2, recombinant human Siglec-10-Fc (human) (UniProt Q96LC7); assay: inferred from reversal of suppression by CD52hi CD4+ T-cells with soluble Siglec-10-Fc (data not shown)
T2 sequence: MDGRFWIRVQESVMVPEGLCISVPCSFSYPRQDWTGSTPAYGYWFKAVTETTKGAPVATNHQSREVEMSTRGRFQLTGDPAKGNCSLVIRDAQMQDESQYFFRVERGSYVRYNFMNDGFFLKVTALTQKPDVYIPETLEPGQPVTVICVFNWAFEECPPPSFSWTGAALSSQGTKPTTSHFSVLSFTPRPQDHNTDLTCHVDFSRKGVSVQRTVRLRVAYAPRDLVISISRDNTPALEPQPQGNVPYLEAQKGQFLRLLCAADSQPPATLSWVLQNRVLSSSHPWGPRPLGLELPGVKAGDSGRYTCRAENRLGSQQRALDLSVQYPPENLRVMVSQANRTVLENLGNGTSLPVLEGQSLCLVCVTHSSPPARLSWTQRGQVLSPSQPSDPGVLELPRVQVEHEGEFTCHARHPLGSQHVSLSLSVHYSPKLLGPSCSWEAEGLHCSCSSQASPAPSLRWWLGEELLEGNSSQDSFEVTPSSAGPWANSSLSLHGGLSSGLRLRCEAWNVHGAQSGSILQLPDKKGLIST

binding [1]: binds
binding [2]: binds
B1: native soluble CD52 glycoprotein (human, released from CD52hi CD4+ T-cells and from cell lines) (peptide)
peptide: GQNDTSQTSSPS
modifications: asparagine (N)-linked terminal carbohydrate
